Measured data: PubChem BioAssay AID686938 (Drosophila RNAi Screening Center, 2013)
The screen tested about 23,000 reagents; shown is a random part of those that have a named target and a result. Over the whole deposit, 75 (0.33%) are marked active. 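Raw plate signals without normalisation; calls rest on plate z-scores that were not deposited; ratio present for only 364 wells.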 The numbers tell different reagents against one gene apart. Not given: the dose of the treatment.

Purpose: 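Fly genes required for calcium entry once internal stores are emptied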 (primary screen)
Cells: Drosophila S2R+ cells
Reagents: long dsRNA against Drosophila genes, about 0.25 µg dsRNA per well, roughly 10,000 cells
Timing: 5 days of knock-down before the calcium assay
Conditions: thapsigargin (SERCA pump blocker) to empty calcium stores; entry signal taken 4 min after adding it
Measurement: 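Duplicate raw fluo-4 intensities per well from a plate reader, at rest and four minutes after thapsigargin emptied calcium stores; entry-to-rest ratio filled for only some wells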
Reading the numbers: calcium entry signal: higher = stronger calcium signal after store depletion; entry to resting ratio: higher = more calcium entry relative to resting level; resting calcium signal: higher = higher resting calcium signal
Hit rule: 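Hit if the duplicate-averaged plate z-score for entry over resting signal is under −3; wells with weak total dye signal (Fmax z < −2) or more than 5 off-targets removed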
Meaning of the calls: active = strongly reduced calcium entry; inactive = no strong reduction

| target | reagent no. | calcium entry signal, replicate 1 (fluorescence units) | calcium entry signal, replicate 2 (fluorescence units) | entry to resting ratio | resting calcium signal, replicate 1 (fluorescence units) | resting calcium signal, replicate 2 (fluorescence units) | Call |
| --- | --- | --- | --- | --- | --- | --- | --- |
| CG8314 (GeneID 36757) | 1 | 3.14e7 | 2.34e7 | – | 1.45e7 | 1.30e7 | inactive |
| Nha1 (GeneID 33961) | 1 | 4.09e7 | – | – | 1.84e7 | – | inactive |
| CG10068 (GeneID 40852) | 1 | 4.69e7 | 4.55e7 | – | 1.84e7 | 2.06e7 | inactive |
| alpha-Est4aPsi (GeneID 3772290) | 1 | 3.77e7 | 4.32e7 | – | 1.77e7 | 2.32e7 | inactive |
| Mcad (GeneID 38864) | 1 | 5.83e7 | 4.79e7 | – | 3.67e7 | 1.90e7 | inactive |
| CG14826 (GeneID 38791) | 1 | 1.79e7 | 3.46e7 | – | 9.05e6 | 1.42e7 | inactive |
| CG18636 (GeneID 2768923) | 1 | 3.64e7 | 2.31e7 | – | 1.75e7 | 1.09e7 | inactive |
| Atac2 (GeneID 35113) | 1 | 4.87e7 | – | – | 2.07e7 | – | inactive |
| CR42548 (GeneID 8673959) | 1 | 3.27e7 | 2.81e7 | – | 1.56e7 | 1.46e7 | inactive |
| Lim1 (GeneID 31813) | 1 | 3.19e7 | 3.37e7 | – | 1.36e7 | 1.48e7 | inactive |
| Lim1 (GeneID 31813) | 2 | 3.37e7 | 3.90e7 | – | 1.54e7 | 2.08e7 | inactive |
| CG42541 (GeneID 31344) | 1 | 2.49e7 | 3.66e7 | – | 1.30e7 | 1.72e7 | inactive |
| CG42541 (GeneID 31344) | 2 | 1.83e7 | 3.23e7 | – | 1.06e7 | 1.71e7 | inactive |
| CG42541 (GeneID 31344) | 3 | 2.57e7 | 3.38e7 | – | 1.33e7 | 1.56e7 | inactive |
| Or65a (GeneID 318011) | 1 | 2.74e7 | 4.21e7 | – | 1.76e7 | 1.75e7 | inactive |
| CG3355 (GeneID 33667) | 1 | 2.43e7 | 3.08e7 | – | 1.34e7 | 1.50e7 | inactive |
| l(3)05822 (GeneID 47260) | 1 | 5.25e7 | 3.91e7 | – | 2.27e7 | 1.82e7 | inactive |
| Aatf (GeneID 33943) | 1 | 2.14e7 | 2.32e7 | – | 1.18e7 | 1.24e7 | inactive |
| Ciao1 (GeneID 36655) | 1 | 4.22e7 | 4.05e7 | – | 1.84e7 | 1.93e7 | inactive |
| CG15446 (GeneID 33088) | 1 | 3.43e7 | 4.64e7 | – | 1.99e7 | 2.15e7 | inactive |
| CG3288 (GeneID 40307) | 1 | 3.50e7 | 5.19e7 | – | 1.58e7 | 2.30e7 | inactive |
| CG14535 (GeneID 34073) | 1 | 2.74e7 | 3.30e7 | – | 1.17e7 | 1.46e7 | inactive |
| PolA1 (GeneID 42553) | 1 | 2.12e7 | 2.25e7 | – | 1.31e7 | 1.16e7 | inactive |
| CG18853 (GeneID 246511) | 1 | 2.20e7 | 2.47e7 | – | 1.04e7 | 1.15e7 | inactive |
| scramb1 (GeneID 326186) | 1 | 2.98e7 | 3.48e7 | – | 1.59e7 | 1.65e7 | inactive |
| scramb1 (GeneID 326186) | 2 | 2.63e7 | 3.58e7 | – | 1.49e7 | 1.65e7 | inactive |
| scramb1 (GeneID 326186) | 3 | 2.92e7 | 3.48e7 | – | 1.63e7 | 1.53e7 | inactive |
| bcn92 (GeneID 31186) | 1 | 6.59e7 | 5.80e7 | 2.2 | 2.93e7 | 2.12e7 | inactive |
| cora (GeneID 37205) | 1 | 3.56e7 | 3.03e7 | – | 1.52e7 | 1.47e7 | inactive |
| Brms1 (GeneID 32243) | 1 | 2.48e7 | 2.19e7 | – | 1.34e7 | 1.18e7 | inactive |
| Gagr (GeneID 39824) | 1 | 3.89e7 | 4.60e7 | – | 1.75e7 | 2.82e7 | inactive |
| wor (GeneID 34906) | 1 | 4.32e7 | 2.96e7 | – | 1.92e7 | 1.49e7 | inactive |
| CG15706 (GeneID 36799) | 1 | 3.94e7 | 4.14e7 | – | 1.62e7 | 1.86e7 | inactive |
| Tcs3 (GeneID 39811) | 1 | 4.34e7 | 5.90e7 | – | 2.23e7 | 3.04e7 | inactive |
| CG9101 (GeneID 32452) | 1 | 2.27e7 | 1.75e7 | – | 1.31e7 | 9.76e6 | inactive |
| RhoGAP102A (GeneID 43781) | 1 | 3.80e7 | 3.78e7 | – | 1.86e7 | 1.56e7 | inactive |
| RhoGAP102A (GeneID 43781) | 2 | 3.77e7 | 5.63e7 | 2.1 | 1.82e7 | 1.97e7 | inactive |
| CG4982 (GeneID 39794) | 1 | 4.12e7 | 2.90e7 | – | 1.79e7 | 1.49e7 | inactive |
| Rtel1 (GeneID 31497) | 1 | 2.88e7 | 4.73e7 | – | 1.48e7 | 2.10e7 | inactive |
| Gale (GeneID 38076) | 1 | 4.87e7 | 3.48e7 | – | 2.39e7 | 1.81e7 | inactive |
| CG31926 (GeneID 326174) | 1 | 4.01e7 | 3.53e7 | – | 1.79e7 | 1.59e7 | inactive |
| Gycalpha99B (GeneID 43493) | 1 | 3.00e7 | 3.17e7 | – | 1.34e7 | 1.51e7 | inactive |
| CG9686 (GeneID 31921) | 1 | 3.43e7 | 5.37e7 | – | 1.70e7 | 2.67e7 | inactive |
| tra2 (GeneID 36619) | 1 | 4.21e7 | 4.76e7 | – | 1.74e7 | 2.24e7 | inactive |
| CG12730 (GeneID 31466) | 1 | 2.12e7 | 3.92e7 | – | 1.15e7 | 1.78e7 | inactive |
| CG33475 (GeneID 2768724) | 1 | 4.23e7 | 3.41e7 | – | 2.00e7 | 1.49e7 | inactive |
| Alms1a (GeneID 31393) | 1 | 3.08e7 | 4.44e7 | – | 1.60e7 | 1.94e7 | inactive |
| MICU3 (GeneID 42357) | 1 | 5.71e7 | 3.20e7 | – | 2.55e7 | 1.58e7 | inactive |
| MICU3 (GeneID 42357) | 2 | 3.48e7 | 3.15e7 | – | 1.48e7 | 1.29e7 | inactive |
| Nop17l (GeneID 35730) | 1 | 3.21e7 | 2.73e7 | – | 1.38e7 | 1.24e7 | inactive |
| Tim17a2 (GeneID 40632) | 1 | 6.09e7 | 4.68e7 | – | 2.60e7 | 2.07e7 | inactive |
| CG6149 (GeneID 39277) | 1 | 3.13e7 | 4.33e7 | – | 1.67e7 | 1.82e7 | inactive |
| Alp10 (GeneID 38632) | 1 | 3.10e7 | 4.84e7 | – | 1.44e7 | 1.98e7 | inactive |
| RpL6 (GeneID 43723) | 1 | 2.43e7 | 2.87e7 | 1.9 | 1.27e7 | 1.47e7 | inactive |
| RpL6 (GeneID 43723) | 2 | 1.50e7 | 2.89e7 | – | 9.51e6 | 1.45e7 | inactive |
| NijC (GeneID 41568) | 1 | 3.11e7 | 3.64e7 | – | 1.74e7 | 1.71e7 | inactive |
| CG5068 (GeneID 39032) | 1 | 3.98e7 | 3.17e7 | – | 2.79e7 | 1.48e7 | inactive |
| CG34223 (GeneID 5740431) | 1 | 4.44e7 | 5.62e7 | – | 2.30e7 | 2.49e7 | inactive |
